Experimental data taken from publication PMC6915971.
Results are given in words; binding and its absence hold for the method and conditions named. Binding seen in cells or lysates may run through a third protein. Some entries that bind do so weakly or less than the wild type.

Chains of the proteins cited; added tags and fusions are not shown.
UniProt Q8N6T7: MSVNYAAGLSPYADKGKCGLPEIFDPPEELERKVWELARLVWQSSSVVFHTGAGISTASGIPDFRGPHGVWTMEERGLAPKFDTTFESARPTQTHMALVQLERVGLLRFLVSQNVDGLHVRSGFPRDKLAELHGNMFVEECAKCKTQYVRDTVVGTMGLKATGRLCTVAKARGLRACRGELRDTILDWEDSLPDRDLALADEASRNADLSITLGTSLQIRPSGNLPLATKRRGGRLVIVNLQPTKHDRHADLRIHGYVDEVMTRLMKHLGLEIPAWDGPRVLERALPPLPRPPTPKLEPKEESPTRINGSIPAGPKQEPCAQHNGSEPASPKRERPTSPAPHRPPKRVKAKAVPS
UniProt P15559: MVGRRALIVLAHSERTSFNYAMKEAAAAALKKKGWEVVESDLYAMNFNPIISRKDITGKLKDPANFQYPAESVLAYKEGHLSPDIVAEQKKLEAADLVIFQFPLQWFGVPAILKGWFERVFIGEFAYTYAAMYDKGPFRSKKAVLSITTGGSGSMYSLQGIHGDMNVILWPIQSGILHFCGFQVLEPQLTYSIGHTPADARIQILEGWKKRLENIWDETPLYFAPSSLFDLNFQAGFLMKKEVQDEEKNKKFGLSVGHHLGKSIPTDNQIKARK

Columns and labels:
[1] = biological target: Sirtuin 6 (SIRT6), endogenous (human (endogenous in PLC/PRF/5 and Huh-7)) (UniProt Q8N6T7); experiment: co-IP; endogenous proteins; HCC cell lysates precipitated in immunoprecipitation assay buffer at 4 °C overnight with anti-SIRT6, anti-NQO1 or anti-26S antibody, then western blotting
[2] = biological target: Myc-DDK-tagged SIRT6 (ectopically expressed) (UniProt Q8N6T7); experiment: co-IP; cells co-transfected with the constructs (PLC/PRF/5, Huh-7); lysates precipitated at 4 °C overnight with the indicated antibodies, then western blotting; for NQO1 and SIRT6 also after NADH (100 μM) or dicoumarol (400 μM) for 4 h
[3] = biological target: NAD(P)H: quinone oxidoreductase 1 (NQO1), endogenous (human (endogenous in PLC/PRF/5)) (UniProt P15559); experiment: co-IP; endogenous proteins; HCC cell lysates precipitated in immunoprecipitation assay buffer at 4 °C overnight with anti-SIRT6, anti-NQO1 or anti-26S antibody, then western blotting

NAD(P)H: quinone oxidoreductase 1 (NQO1), endogenous (from UniProt P15559 1-274) (enzyme)
binding [1]: binds

NQO1 (ectopically expressed from pCMV6-NQO1) (from UniProt P15559 1-274) (enzyme)
binding [2]: binds

Sirtuin 6 (SIRT6), endogenous (from UniProt Q8N6T7 1-355)
binding [3]: binds
